Reference: PMC7772355
No constants are given. Whether binding was seen depends on the method and setting. Binding seen in cells or lysates may run through a third protein. Some results given as binding are weak or reduced against the parent protein; the word gives no strength.

Target: membrane NEU1 (tagged copies NEU1-HA and NEU1-Flag) of the dimerisation experiment (human) (UniProt Q99519)
Experiment: co-IP; crude membranes of COS-7 cells transfected with NEU1 and PPCA, solubilised in 1% CHAPS with or without peptides; anti-Flag immunoprecipitation by the methods; NEU1 dimers seen as bands of 70-72 kDa on Western blot with anti-HA

- binding: binds
Substance: membrane NEU1 (tagged copies NEU1-HA and NEU1-Flag) of the dimerisation experiment (from UniProt Q99519 48-415) (enzyme)
